# From publication PMC5736539
# Protein sequences, listed by entry. Tags and fused reporters are not part of them. Lines headed by an entry give the natural chain unless they say otherwise; changes in a name come on top.
# UniProt P54578: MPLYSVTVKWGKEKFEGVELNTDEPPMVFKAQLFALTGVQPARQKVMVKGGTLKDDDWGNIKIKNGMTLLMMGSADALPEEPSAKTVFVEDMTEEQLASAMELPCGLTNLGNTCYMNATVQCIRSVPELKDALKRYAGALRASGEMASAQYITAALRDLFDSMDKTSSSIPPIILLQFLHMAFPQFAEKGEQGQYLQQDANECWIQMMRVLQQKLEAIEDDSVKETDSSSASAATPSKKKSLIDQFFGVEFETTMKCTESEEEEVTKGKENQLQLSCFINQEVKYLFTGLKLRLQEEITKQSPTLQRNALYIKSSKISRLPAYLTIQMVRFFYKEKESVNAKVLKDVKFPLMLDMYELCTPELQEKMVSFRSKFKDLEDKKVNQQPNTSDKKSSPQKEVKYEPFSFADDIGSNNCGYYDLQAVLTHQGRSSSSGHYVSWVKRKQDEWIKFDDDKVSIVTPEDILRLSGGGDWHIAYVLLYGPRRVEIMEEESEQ
# UniProt Q14457: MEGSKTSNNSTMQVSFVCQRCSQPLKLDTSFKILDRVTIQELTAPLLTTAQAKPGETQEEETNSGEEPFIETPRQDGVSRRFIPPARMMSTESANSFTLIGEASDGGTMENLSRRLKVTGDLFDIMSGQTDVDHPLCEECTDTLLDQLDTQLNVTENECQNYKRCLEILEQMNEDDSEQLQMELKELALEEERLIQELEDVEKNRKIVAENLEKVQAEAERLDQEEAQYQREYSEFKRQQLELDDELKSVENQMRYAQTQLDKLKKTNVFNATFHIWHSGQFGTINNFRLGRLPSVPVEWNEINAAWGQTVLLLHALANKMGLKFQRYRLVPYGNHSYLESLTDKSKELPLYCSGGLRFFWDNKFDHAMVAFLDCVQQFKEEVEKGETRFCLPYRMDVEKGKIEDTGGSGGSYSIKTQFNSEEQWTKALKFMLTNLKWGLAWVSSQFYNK
# Results are given in words; binding and its absence hold for the method and conditions named. Binding seen in cells or lysates may run through a third protein. Some results given as binding are weak or reduced against the parent protein; the word gives no strength.
# Target: Flag-tagged USP14 (ubiquitin-specific protease 14) (UniProt P54578)
# Experiment: co-IP; HEK293T co-transfected, extracted 38 h after transfection; IP with anti-Flag antibody (Flag-USP14 or Flag-TRAF6 as bait), western blot (Figures 1B, 1E)
row,binding,Substance
1,no binding,Myc-tagged Beclin 1 1-127 (from UniProt Q14457 1-127) (domain or fragment)
2,binds,Myc-tagged Beclin 1 wild type (from UniProt Q14457 1-450)
